Paper PMC8274477
These are yes or no findings as the source states them, for the method shown. Some binding calls cover weakened binding; strength is not graded here.

Chains of the proteins cited; added tags and fusions are not shown.
UniProt Q9HCP0: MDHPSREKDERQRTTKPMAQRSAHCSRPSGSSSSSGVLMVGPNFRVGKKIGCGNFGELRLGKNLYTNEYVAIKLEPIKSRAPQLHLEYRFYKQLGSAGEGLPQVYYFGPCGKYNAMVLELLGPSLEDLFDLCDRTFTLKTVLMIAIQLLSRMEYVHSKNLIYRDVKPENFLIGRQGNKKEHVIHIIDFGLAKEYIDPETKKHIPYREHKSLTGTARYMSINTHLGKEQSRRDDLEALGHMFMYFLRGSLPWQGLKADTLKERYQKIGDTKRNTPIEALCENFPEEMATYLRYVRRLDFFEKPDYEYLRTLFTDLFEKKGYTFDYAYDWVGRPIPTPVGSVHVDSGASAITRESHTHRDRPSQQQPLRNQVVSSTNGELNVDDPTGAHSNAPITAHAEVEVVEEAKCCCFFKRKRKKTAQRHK
UniProt Q15427: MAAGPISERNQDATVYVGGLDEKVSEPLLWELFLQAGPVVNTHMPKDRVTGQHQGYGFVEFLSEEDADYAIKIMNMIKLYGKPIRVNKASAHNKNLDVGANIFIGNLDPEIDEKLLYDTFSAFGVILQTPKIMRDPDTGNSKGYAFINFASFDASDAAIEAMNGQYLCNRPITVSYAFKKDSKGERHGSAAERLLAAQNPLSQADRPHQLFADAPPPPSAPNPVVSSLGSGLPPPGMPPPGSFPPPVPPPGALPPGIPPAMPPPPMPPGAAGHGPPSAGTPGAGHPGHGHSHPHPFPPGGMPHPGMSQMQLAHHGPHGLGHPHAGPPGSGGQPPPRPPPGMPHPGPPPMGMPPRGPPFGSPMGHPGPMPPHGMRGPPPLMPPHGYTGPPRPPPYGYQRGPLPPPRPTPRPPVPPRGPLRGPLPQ
UniProt O00338: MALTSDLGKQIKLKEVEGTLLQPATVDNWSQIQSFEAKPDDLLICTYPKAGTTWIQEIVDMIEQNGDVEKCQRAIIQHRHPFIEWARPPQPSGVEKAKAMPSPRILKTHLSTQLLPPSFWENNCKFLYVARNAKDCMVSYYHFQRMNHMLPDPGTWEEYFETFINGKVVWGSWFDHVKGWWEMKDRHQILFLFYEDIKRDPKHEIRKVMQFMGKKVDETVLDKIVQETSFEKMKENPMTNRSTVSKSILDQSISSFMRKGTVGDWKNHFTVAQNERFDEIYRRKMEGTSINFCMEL
UniProt Q8NCL8: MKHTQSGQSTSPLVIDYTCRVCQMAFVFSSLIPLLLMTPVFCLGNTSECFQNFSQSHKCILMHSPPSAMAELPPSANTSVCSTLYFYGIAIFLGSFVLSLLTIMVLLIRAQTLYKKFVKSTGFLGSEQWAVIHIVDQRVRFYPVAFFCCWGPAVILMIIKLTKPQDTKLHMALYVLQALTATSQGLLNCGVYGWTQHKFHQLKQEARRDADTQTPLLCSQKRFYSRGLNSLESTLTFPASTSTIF

What was measured:
Test in all cases: peptide or protein array; HuProt human proteome microarray; 5 ug/5 ml biotin-labelled LUBAC or OTULIN in solution, 1 h at room temperature; Cy5-streptavidin, scanned at 635 nm; BSA as negative control; hits: Z-score >= 3 and I_(Mean_Ratio) >= 1.4; both purified
ACO1 (human) = target: T1, ACO1 (human) (UniProt P21399)
T1 sequence: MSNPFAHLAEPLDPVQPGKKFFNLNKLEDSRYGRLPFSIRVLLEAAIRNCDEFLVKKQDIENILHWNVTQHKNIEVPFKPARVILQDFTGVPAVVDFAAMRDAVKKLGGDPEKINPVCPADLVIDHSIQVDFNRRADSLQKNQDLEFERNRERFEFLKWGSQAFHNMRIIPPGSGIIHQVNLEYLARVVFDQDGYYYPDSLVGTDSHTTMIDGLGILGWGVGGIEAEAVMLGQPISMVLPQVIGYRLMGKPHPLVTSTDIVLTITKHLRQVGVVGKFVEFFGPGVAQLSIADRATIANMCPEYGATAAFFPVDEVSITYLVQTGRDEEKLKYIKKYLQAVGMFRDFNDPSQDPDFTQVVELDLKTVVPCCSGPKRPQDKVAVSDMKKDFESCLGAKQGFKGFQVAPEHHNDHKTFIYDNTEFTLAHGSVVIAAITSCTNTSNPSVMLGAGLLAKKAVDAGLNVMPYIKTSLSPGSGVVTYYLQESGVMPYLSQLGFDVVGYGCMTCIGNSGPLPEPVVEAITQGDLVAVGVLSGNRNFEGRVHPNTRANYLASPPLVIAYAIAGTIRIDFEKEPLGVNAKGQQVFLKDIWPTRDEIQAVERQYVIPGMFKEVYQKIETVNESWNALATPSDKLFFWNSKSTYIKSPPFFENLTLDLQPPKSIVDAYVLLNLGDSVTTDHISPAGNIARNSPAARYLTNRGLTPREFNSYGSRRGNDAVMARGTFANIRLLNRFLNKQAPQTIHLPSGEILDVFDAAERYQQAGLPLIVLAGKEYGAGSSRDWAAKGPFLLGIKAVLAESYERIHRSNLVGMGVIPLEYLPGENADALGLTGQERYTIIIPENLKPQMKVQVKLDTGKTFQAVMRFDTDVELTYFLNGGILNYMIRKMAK

CSNK1G1 (human) = CSNK1G1 (human) (UniProt Q9HCP0)
KCNAB1 (human) = target: T2, KCNAB1 (human) (UniProt Q14722)
T2 sequence: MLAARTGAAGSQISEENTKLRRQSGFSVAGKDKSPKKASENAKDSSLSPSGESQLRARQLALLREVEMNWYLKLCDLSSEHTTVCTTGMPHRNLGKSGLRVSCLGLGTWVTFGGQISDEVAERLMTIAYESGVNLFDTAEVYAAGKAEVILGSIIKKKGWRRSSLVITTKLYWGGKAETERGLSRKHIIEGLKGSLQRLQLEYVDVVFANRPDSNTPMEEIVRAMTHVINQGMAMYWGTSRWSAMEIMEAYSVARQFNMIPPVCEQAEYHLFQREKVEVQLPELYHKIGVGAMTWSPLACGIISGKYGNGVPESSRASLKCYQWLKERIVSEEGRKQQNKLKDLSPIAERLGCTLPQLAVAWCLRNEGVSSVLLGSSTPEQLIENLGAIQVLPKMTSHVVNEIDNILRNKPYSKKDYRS

SF3B4 (human) = SF3B4 (human) (UniProt Q15427)
SULT1C2 (human) = SULT1C2 (human) (UniProt O00338)
TAF9B (human) = TAF9B (human) (UniProt Q9HBM6)
TMEM116 (human) = TMEM116 (human) (UniProt Q8NCL8)

Measured: binding

linear ubiquitin chain assembly complex (LUBAC), purified as HIS-tagged HOIP with the subunit HOIL-1, biotin-labelled (from UniProt Q96EP0 1-1072; Q9BYM8 1-510)
binds: all assays above
